Values from PubChem BioAssay AID493246 (Drosophila RNAi Screening Center, 2011).

Purpose: 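Identify essential fly genes by loss of cell viability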 (primary screen)
Cells: Drosophila Kc and S2R+ cells
Reagents: long dsRNA against Drosophila genes
Detection: 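Raw, unnormalised count of remaining cells in each well; per-plate z-scores of cell number underlie the calls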
Direction: Kc cell number and S2R+ cell number: higher = more cells remaining
Rule for the call: 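Counted as a hit if cell number falls by a z-score of at least 3 within its plate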
The screen tested about 21,000 reagents; below is a random part of those that have a named target and a result. Over the whole deposit, 429 (2%) got an active call. 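Values are raw and not normalised between plates; calls rest on per-plate z-scores that were not deposited.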 Reagents against one gene are numbered here. Not stated in the record: the amount of reagent, the time to read-out.

After knock-down of CG14803 the results were Kc cell number, rep 1 = 1.78e6; Kc cell number, rep 2 = 1.81e6; S2R+ cell number, rep 1 = 1.13e6; S2R+ cell number, rep 2 = 1.27e6; inactive.
Atg5 gave Kc cell number, rep 1 = 6.46e5; S2R+ cell number, rep 1 = 9.38e5; inactive.
Knock-down of Or10a gave: Kc cell number, rep 1 = 1.55e6; Kc cell number, rep 2 = 1.53e6; S2R+ cell number, rep 1 = 1.05e6; S2R+ cell number, rep 2 = 1.12e6; inactive.
Against xmas-1 (retired record), the values are Kc cell number, rep 1 = 1.56e6; Kc cell number, rep 2 = 1.59e6; S2R+ cell number, rep 1 = 1.09e6; S2R+ cell number, rep 2 = 1.24e6; inactive.
Against PolE4 the deposit lists Kc cell number, rep 1 = 1.69e6; Kc cell number, rep 2 = 1.68e6; S2R+ cell number, rep 1 = 1.26e6; S2R+ cell number, rep 2 = 1.42e6; inactive.
Depletion of Prosap #1 came out at: Kc cell number, rep 1 = 1.64e6; Kc cell number, rep 2 = 1.76e6; S2R+ cell number, rep 1 = 1.44e6; S2R+ cell number, rep 2 = 1.64e6; inactive.
With knock-down of Prosap #2, the record shows Kc cell number, rep 1 = 1.40e6; Kc cell number, rep 2 = 1.46e6; S2R+ cell number, rep 1 = 1.11e6; S2R+ cell number, rep 2 = 1.15e6; inactive.
Silencing of CG31145 #1 came out at: Kc cell number, rep 1 = 1.15e6; Kc cell number, rep 2 = 1.46e6; S2R+ cell number, rep 1 = 1.08e6; S2R+ cell number, rep 2 = 1.11e6; inactive.
Against CG31145 #2 the deposit lists Kc cell number, rep 1 = 1.64e6; Kc cell number, rep 2 = 1.57e6; S2R+ cell number, rep 1 = 9.31e5; S2R+ cell number, rep 2 = 1.03e6; inactive.
CG31145 #3 scored Kc cell number, rep 1 = 9.90e5; Kc cell number, rep 2 = 1.19e6; S2R+ cell number, rep 1 = 5.90e5; S2R+ cell number, rep 2 = 7.01e5; active.
After knock-down of CG31145 #4, the screen gave Kc cell number, rep 1 = 1.69e6; Kc cell number, rep 2 = 1.64e6; S2R+ cell number, rep 1 = 9.01e5; S2R+ cell number, rep 2 = 1.01e6; inactive.
wapl showed Kc cell number, rep 1 = 5.20e5; S2R+ cell number, rep 1 = 7.55e5; inactive.
